From PubChem BioAssay AID1487 (National Center for Advancing Translational Sciences (NCATS), 2009)
Several values for one entry are separate records, joined by “and”; a condition that tells them apart may be missing. Equal entries are not always repeated. Some of the results follow. These are further read-outs of the screen, such as a control signal, another cell line or another target. No call is given for them. The list favours compounds with an active or inconclusive main result. The note in brackets gives the kind of curve behind each potency; many fits are weak.

Test: qHTS Assay for Modulators of Lamin A Splicing
Details: HeLa LMNA splicing GFP/RFP minigene ratio, 48 h
Procedure, shortened: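 S3 HeLa cells stably expressing lamin A-EGFP splicing minigene plus DsRed2, 600 cells/well, 48 h compound exposure at 37C. Laser-scanning cytometry; analysed as GFP (500-530 nm)/RFP (575-640 nm) total intensity ratio; 0.5% DMSO vehicle.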

[1] = measured here: GFP splicing reporter channel
[2] = measured here: RFP viability control channel

| Structure (SMILES) | AC50 [1] | AC50 [2] |
| --- | --- | --- |
| OCC(O)CS (stereo not drawn) | 0.00891 µM [falling, full curve, poor fit] | 17.8 µM [falling, partial curve, poor fit] |
| S=C=S |  | 0.158 µM [rising, full curve, poor fit] |
| C#CCOC(=O)C1=CCCN(C)C1 | 0.00447 µM [falling, full curve, poor fit] | 0.00794 µM [falling, full curve, poor fit] |
| COc1ccc(OCC(=O)N2CCN(Cc3cc(=O)n4nc(-c5ccccc5C)sc4n3)CC2)cc1 | 35.5 µM [falling, single point] |  |
| Nc1ncnc2c1ncn2[C@@H]1O[C@H](COP(=O)(O)CP(=O)(O)OP(=O)(O)O)[C@H](O)[C@H]1O |  | 15.8 µM [falling, single point] |
| c1ccc(CCCN2CCN(CCOC(c3ccccc3)c3ccccc3)CC2)cc1 | 25.1 µM [falling, single point] | 17.8 µM [falling, partial curve] |
| O=C(OC1CCN(CCCl)CC1)C(c1ccccc1)c1ccccc1 | 11.2 µM [falling, partial curve] | 14.1 µM [falling, partial curve] |
| NC(=O)C1=CN(C2OC(COP(=O)(O)OP(=O)(O)OC[C@H]3O[C@@H](n4cnc5c(N)ncnc54)[C@H](OP(=O)(O)O)[C@H]3O)C(O)C2O)C=CC1 (stereo partly drawn) |  | 14.1 µM [rising, single point] |
| C[N+]1([O-])[C@@H]2CC[C@H]1CC(OC(=O)[C@@H](CO)c1ccccc1)C2 (stereo partly drawn) | 0.891 µM [falling, partial curve, poor fit] |  |
| Cc1cc(C=O)c(C)n1C1CC1 |  | 1.78 µM [rising, full curve, poor fit] |
| Cc1ccc(OCCSc2nc3ccc(NC(=O)c4ccc5c(c4)OCO5)cc3s2)cc1 | 12.6 µM [falling, partial curve] | 22.4 µM [falling, partial curve] |
| CCCCn1c(O)c(C(CC)=Nc2ccc3c(c2)CCC3)c(=O)[nH]c1=O | 17.8 µM [rising, single point] | 14.1 µM [rising, single point] |
| CCCCn1c(O)c(C=NCCCN(C)C)c(=O)[nH]c1=O |  | 0.141 µM [falling, single point] |
| O=C(CCc1nc(C2=CCN(Cc3cccc(Cl)c3)CC2)no1)Nc1ccccc1F | 3.55 µM [rising, partial curve] | 6.31 µM [rising, partial curve] |
| O=C1NC(=O)N(Cc2ccccc2)C(=O)/C1=C\c1ccco1 |  | 31.6 µM [rising, single point] |
| CCCn1c(C)c(C(=O)c2ccc3ccccc3c2)c2ccccc21 | 25.1 µM [falling, single point] | 14.1 µM [falling, single point] |
| CCn1nc(-c2cccs2)nc2c(=O)n(C)c(=O)nc1-2 | 3.98 µM [falling, full curve] | 7.08 µM [falling, full curve] |
| c1ccc2c(CNC3CCCCC3)c[nH]c2c1 | 28.2 µM [falling, single point] | 1.12 µM [falling, partial curve, poor fit] |
| CCCN1CCc2cccc3c2C1Cc1ccc(O)c(O)c1-3 (stereo not drawn) | 15.8 µM [falling, partial curve] | 12.6 µM [falling, partial curve] |
| c1ccc(C2CC2)c(OCC2=NCCN2)c1 | 0.00562 µM [rising, full curve, poor fit] | 0.0562 µM [rising, full curve, poor fit] |
| CN1Cc2c(ccc3c2OCO3)C2C(O)Cc3cc4c(cc3C21)OCO4 (stereo not drawn) | 12.6 µM [falling, partial curve] | 15.8 µM [falling, single point] |
| COC(=O)CCCNC(=O)CN1CC(c2ccccc2)CC1=O (stereo not drawn) |  | 0.2 µM [rising, partial curve] |
| COc1ccc(N(CC(=O)Nc2cccc(SC)c2)S(C)(=O)=O)cc1Cl |  | 3.55 µM [rising, full curve] |
| CCC(CO)NC(=O)C1C=C2c3cccc4[nH]cc(c34)CC2N(C)C1 (stereo not drawn) | 0.0355 µM [rising, full curve, poor fit] | 6.31 µM [rising, single point] |
| CNC(C)(C)Cc1ccccc1 | 0.0126 µM [falling, full curve, poor fit] | 0.00316 µM [falling, full curve, poor fit] |
| OC(O)C(Cl)(Cl)Cl | 0.0158 µM [falling, full curve, poor fit] | 11.2 µM [falling, partial curve, poor fit] |

| Structure (SMILES) | AC50 [1] | AC50 [2] |
| --- | --- | --- |
| O=C(CSc1ccccn1)Nc1cccc2ccccc12 |  | 28.2 µM [falling, partial curve, poor fit] |
| COc1ccc(/C=C/c2nc3ccccc3c(=O)n2-c2ccc(C)cc2)cc1O | 14.1 µM [falling, partial curve, poor fit] |  |
| Cc1c(C=O)c2ccccc2n1Cc1ccc(F)cc1 |  | 35.5 µM [falling, single point] |
| COc1cc2c(cc1OC)CN(c1ccc([N+](=O)[O-])c(C(F)(F)F)c1)CC2 | 35.5 µM [falling, single point] | 35.5 µM [falling, single point] |
| NP(=O)(Oc1ccccc1Cl)Oc1ccccc1Cl |  | 0.0316 µM [falling, full curve, poor fit] |
| CC[N+](CC)(CC)CCOc1cccc(OCC[N+](CC)(CC)CC)c1OCC[N+](CC)(CC)CC |  | 35.5 µM [falling, single point] |
| CCCCC(=O)C1C(=O)NC(=O)NC1=O |  | 0.0224 µM [rising, full curve, poor fit] |
| Cc1ccc(S(=O)(=O)NCC(=O)OCC(=O)N2N=C(c3ccc(Cl)cc3)CC2c2ccco2)cc1C (stereo not drawn) |  | 15.8 µM [rising, single point] |
| O=c1c(O)c(-c2ccc(O)c(O)c2)oc2cc(O)cc(O)c12 | 355 nM [falling, single point] and 35.5 µM [falling, single point] and 22.4 µM [falling, partial curve] | 14.1 µM [falling, partial curve] |
| CC(=O)c1ccc(Oc2ccc(C(=O)c3ccc(C)c(C)c3)cc2[N+](=O)[O-])cc1 | 3.98 µM [rising, full curve, poor fit] | 31.6 µM [rising, single point] |
| COc1cc2c(cc1C=O)OCO2 |  | 0.126 µM [falling, partial curve, poor fit] |
| C=Cn1ccnc1P(=S)(c1c(C)nn(-c2ccccc2)c1C)c1nccn1C=C | 0.00891 µM [rising, full curve, poor fit] | 0.00708 µM [rising, full curve, poor fit] |
| Cc1cc(S(=O)(=O)NC(C)C)ccc1OCC(=O)N1CCN(Cc2ccc3c(c2)OCO3)CC1 | 25.1 µM [rising, single point] | 14.1 µM [rising, partial curve] |
| NCC(CP(=O)(O)O)c1ccc(Cl)cc1 (stereo not drawn) |  | 0.00224 µM [falling, full curve, poor fit] |
| CCC(=O)O[C@@H]1[C@@H](OC(C)=O)[C@@]2(O)C(C[C@H](O)C2(C)C)[C@](C)(O)[C@H]2CC[C@@H]3[C@@H](O)[C@]12C[C@@]3(C)O (stereo partly drawn) |  | 1.58 µM [rising, partial curve, poor fit] |
| CCOP(=O)(OCC)/C(C#N)=C/c1ccc(Br)cc1 |  | 0.891 µM [falling, full curve, poor fit] |
| Clc1ccc(CS[C@@H](Cn2ccnc2)c2ccc(Cl)cc2Cl)cc1 |  | 0.000398 µM [falling, full curve, poor fit] |
| O=C(Cn1ncc2c3ccccc3n(Cc3ccccc3F)c2c1=O)N1CCC2(CC1)OCCO2 | 11.2 µM [rising, partial curve, poor fit] | 22.4 µM [rising, single point] |
| CN1C(=O)N(C)C(=O)C2(Cc3c(nc4ccccn4c3=O)N3CCc4ccccc4C32)C1=O (stereo not drawn) |  | 2.51 µM [rising, partial curve, poor fit] |
| O=C1CN=C(c2cccs2)c2c(sc3c2CCCC3)N1 | 14.1 µM [falling, single point] | 22.4 µM [falling, single point] |
| CCCCCc1nc2ccccc2c(=O)n1-c1ccccc1[N+](=O)[O-] |  | 31.6 µM [rising, single point] |
| CN[C@H]1C[C@H]2O[C@@](C)([C@H]1OC)n1c3ccccc3c3c4c(c5c6ccccc6n2c5c31)C(=O)NC4 | 0.708 µM [falling, full curve] | 1 µM [falling, full curve] |
| COc1cc(C2C(C#N)=C(N)Oc3cc(O)ccc32)cc(OC)c1OC (stereo not drawn) | 3.16 µM [falling, full curve] | 3.98 µM [falling, full curve] |
| O=C(O)c1ccccc1Nc1cccc(C(F)(F)F)c1 | 0.00891 µM [rising, full curve, poor fit] | 3.16 nM [rising, full curve, poor fit] and 3.55 µM [rising, partial curve, poor fit] |
| O=C(CNC(=O)OCc1ccccc1)Nc1ccc(Br)cc1C(=O)c1ccccc1 | 20 µM [falling, single point] | 11.2 µM [falling, partial curve, poor fit] |
